The exact form of at least one protein or probe is not confirmed. A weaker result is weaker than the reference pair of the same experiment.
Test system: MutLγ double mutant complexes (Saccharomyces cerevisiae (S288c, SKY4158))
Assay: EMSA
Settings: more affected than single mutants

| Sequence | binding result |
| --- | --- |
| CTAGTATAGAGCCGGCGCGCCATGTCTAGATAGCGTTAGGTCTGCCGAATAGTACTACTCGGATCCCGAGCGAACCACGC / GCGTGGTTCGCTCGGGATCCGAGTAGTACTATTCGGCAGAGGATTCGAATAGGCCTAATCGAATTCCGCCATCGATGCAC / GTGCATCGATGGCGGAATTCGATTAGGCCTATTCGAATCCAGACGCGAGTAGATCTTCACGGTACCCGCGGTTACCCGTG / CACGGGTAACCGCGGGTACCGTGAAGATCTACTCGCGTCTCCTAACGCTATCTAGACATGGCGCGCCGGCTCTATACTAG [HJ80 (cb095/096/097/098)] | binds more weakly |
| TTTTTTTTTTTTTTTTTTTTTTTTTTTTTTTTTTTTTTTTTTTTTTTTTTTTTTTTTTTTTTTTTTTTTTTTTTTTTTTT [ssDNA80 (poly-dT, cb099)] | binds more weakly |

Reference: article doi:10.1101/108647
